# Test results: patent US11911301B2, “Polymer coatings containing drug powder of controlled morphology” (Micell Technologies, Inc., priority 2005, dated 2024)
# At least one compound was matched to its structure with a doubt left.
# Test: X-Ray Diffraction (XRD) of drug morphology in coated films
# Format: physicochemical
compound,measurement,setting,value
"CO[C@H]1C[C@@H]2CC[C@@H](C)[C@@](O)(O2)C(=O)C(=O)N2CCCC[C@H]2C(=O)O[C@H]([C@H](C)C[C@@H]2CC[C@@H](O)[C@H](OC)C2)CC(=O)[C@H](C)/C=C(\C)[C@@H](O)[C@@H](OC)C(=O)[C@H](C)C[C@H](C)/C=C/C=C/C=C/1C [Rapamycin, rapamycin]",Rapamycin remains crystalline throughout the coating and sintering process (XRD),"Rapamycin, PEVA and PBMA coated, sintered stent",~64%
same,"crystalline rapamycin (XRD, quantitative indication of drug morphology)",coated films on proxy substrates / proxy samples,> +65% crystalline rapamycin on
same,Rapamycin deposited in crystalline morphology,"summary statement, Rapamycin/PEVA/PBMA coating, 1:1 PBMA:PEVA, ~10 μM thick",> 50%
